{"source": "PubChem BioAssay AID686943 | Drosophila RNAi Screening Center, 2013", "test": "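Knockdowns that increase or decrease active ERK after insulin receptor stimulation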 (primary screen)", "cell system": "Drosophila S2R+ haemocyte-like cells expressing YFP-tagged ERK (Rolled)", "reagents": "long dsRNA against Drosophila genes", "challenge": "insulin stimulation versus unstimulated cells; dose and duration not given", "measurement": "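Antibody staining for doubly phosphorylated ERK divided by ERK-YFP signal, as plate z-scores, in insulin-treated and untreated cells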", "scale": "replicate 1, z-score of dpERK with insulin: higher = more active ERK per ERK-YFP after insulin", "note": "The screen tested about 23,000 reagents; below is an unselected part of those with a known target gene and a result. 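Extra replicates exist only for a retested subset of genes; insulin dose and duration not given; both raised and lowered dpERK matter.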 The numbers tell different reagents against one gene apart. A plus sign joins genes that one reagent is predicted to hit. Not all columns of the deposit are shown. Not given: the amount of reagent, the time to read-out."}
The first 2 records, ahead of the listing:
{"gene":"CG30103","dsRNA no.":1,"replicate 1, z-score of dpERK with insulin":0.27}
{"gene":"CG34430","dsRNA no.":1,"replicate 1, z-score of dpERK with insulin":0.15}

The list itself, from the first entry:
{"gene":"CG30103","dsRNA no.":1,"replicate 1, z-score of dpERK with insulin":0.27}
{"gene":"CG34430","dsRNA no.":1,"replicate 1, z-score of dpERK with insulin":0.15}
{"gene":"CG4151","dsRNA no.":1,"replicate 1, z-score of dpERK with insulin":-0.27}
{"gene":"alc (alicorn)","dsRNA no.":1,"replicate 1, z-score of dpERK with insulin":0.61}
{"gene":"alc (alicorn)","dsRNA no.":2,"replicate 1, z-score of dpERK with insulin":-0.57}
{"gene":"yellow-e3","dsRNA no.":1,"replicate 1, z-score of dpERK with insulin":1.19}
{"gene":"CG18417","dsRNA no.":1,"replicate 1, z-score of dpERK with insulin":0.34}
{"gene":"Dim1","dsRNA no.":1,"replicate 1, z-score of dpERK with insulin":1.86}
{"gene":"CAH4 (Carbonic anhydrase 4)","dsRNA no.":1,"replicate 1, z-score of dpERK with insulin":0.25}
{"gene":"Akap200 (A kinase anchor protein 200)","dsRNA no.":1,"replicate 1, z-score of dpERK with insulin":-0.78}
{"gene":"Tomosyn","dsRNA no.":1,"replicate 1, z-score of dpERK with insulin":-0.18}
{"gene":"Tomosyn","dsRNA no.":2,"replicate 1, z-score of dpERK with insulin":0.63}
{"gene":"Tomosyn","dsRNA no.":3,"replicate 1, z-score of dpERK with insulin":0.1}
{"gene":"Tomosyn","dsRNA no.":4,"replicate 1, z-score of dpERK with insulin":0.53}
{"gene":"CG9988","dsRNA no.":1,"replicate 1, z-score of dpERK with insulin":-0.02}
{"gene":"msi (musashi)","dsRNA no.":1,"replicate 1, z-score of dpERK with insulin":-0.57}
{"gene":"CG33155 + mRpL53","dsRNA no.":1,"replicate 1, z-score of dpERK with insulin":-0.17}
{"gene":"CG3999","dsRNA no.":1,"replicate 1, z-score of dpERK with insulin":0.34}
{"gene":"CG2127","dsRNA no.":1,"replicate 1, z-score of dpERK with insulin":0.28}
{"gene":"CG12589","dsRNA no.":1,"replicate 1, z-score of dpERK with insulin":-1.05}
{"gene":"RpL35 (Ribosomal protein L35)","dsRNA no.":1,"replicate 1, z-score of dpERK with insulin":-1.31}
{"gene":"CG5445","dsRNA no.":1,"replicate 1, z-score of dpERK with insulin":-0.64}
{"gene":"TkR86C (Tachykinin-like receptor at 86C)","dsRNA no.":1,"replicate 1, z-score of dpERK with insulin":-0.42}
{"gene":"Taf8 (TBP-associated factor 8)","dsRNA no.":1,"replicate 1, z-score of dpERK with insulin":0.12}
{"gene":"CG14422","dsRNA no.":1,"replicate 1, z-score of dpERK with insulin":0.42}
{"gene":"CG5883","dsRNA no.":1,"replicate 1, z-score of dpERK with insulin":0.52}
{"gene":"Nph (Nucleophosmin)","dsRNA no.":1,"replicate 1, z-score of dpERK with insulin":0.37}
{"gene":"yip7 (yippee interacting protein 7)","dsRNA no.":1,"replicate 1, z-score of dpERK with insulin":0.75}
{"gene":"Nepl6 (Neprilysin-like 6)","dsRNA no.":1,"replicate 1, z-score of dpERK with insulin":0.38}
{"gene":"ItgaPS4 (Integrin alphaPS4 subunit)","dsRNA no.":1,"replicate 1, z-score of dpERK with insulin":-0.05}
{"gene":"CG8405","dsRNA no.":1,"replicate 1, z-score of dpERK with insulin":0.79}
{"gene":"CG8405","dsRNA no.":2,"replicate 1, z-score of dpERK with insulin":-0.5}
